Laboratory results reported in patent US20260207602A1, “EGFR INHIBITORS” (Blueprint Medicines Corporation, priority 2022, published 2026).

By UniProt entry, the sequences of proteins in these tests, tags left out. Where a name states a change or a piece, a line headed by the entry shows the natural chain unless it says otherwise. Residues count along the entry.
UniProt P00533, 25-1210 L858R limits assumed: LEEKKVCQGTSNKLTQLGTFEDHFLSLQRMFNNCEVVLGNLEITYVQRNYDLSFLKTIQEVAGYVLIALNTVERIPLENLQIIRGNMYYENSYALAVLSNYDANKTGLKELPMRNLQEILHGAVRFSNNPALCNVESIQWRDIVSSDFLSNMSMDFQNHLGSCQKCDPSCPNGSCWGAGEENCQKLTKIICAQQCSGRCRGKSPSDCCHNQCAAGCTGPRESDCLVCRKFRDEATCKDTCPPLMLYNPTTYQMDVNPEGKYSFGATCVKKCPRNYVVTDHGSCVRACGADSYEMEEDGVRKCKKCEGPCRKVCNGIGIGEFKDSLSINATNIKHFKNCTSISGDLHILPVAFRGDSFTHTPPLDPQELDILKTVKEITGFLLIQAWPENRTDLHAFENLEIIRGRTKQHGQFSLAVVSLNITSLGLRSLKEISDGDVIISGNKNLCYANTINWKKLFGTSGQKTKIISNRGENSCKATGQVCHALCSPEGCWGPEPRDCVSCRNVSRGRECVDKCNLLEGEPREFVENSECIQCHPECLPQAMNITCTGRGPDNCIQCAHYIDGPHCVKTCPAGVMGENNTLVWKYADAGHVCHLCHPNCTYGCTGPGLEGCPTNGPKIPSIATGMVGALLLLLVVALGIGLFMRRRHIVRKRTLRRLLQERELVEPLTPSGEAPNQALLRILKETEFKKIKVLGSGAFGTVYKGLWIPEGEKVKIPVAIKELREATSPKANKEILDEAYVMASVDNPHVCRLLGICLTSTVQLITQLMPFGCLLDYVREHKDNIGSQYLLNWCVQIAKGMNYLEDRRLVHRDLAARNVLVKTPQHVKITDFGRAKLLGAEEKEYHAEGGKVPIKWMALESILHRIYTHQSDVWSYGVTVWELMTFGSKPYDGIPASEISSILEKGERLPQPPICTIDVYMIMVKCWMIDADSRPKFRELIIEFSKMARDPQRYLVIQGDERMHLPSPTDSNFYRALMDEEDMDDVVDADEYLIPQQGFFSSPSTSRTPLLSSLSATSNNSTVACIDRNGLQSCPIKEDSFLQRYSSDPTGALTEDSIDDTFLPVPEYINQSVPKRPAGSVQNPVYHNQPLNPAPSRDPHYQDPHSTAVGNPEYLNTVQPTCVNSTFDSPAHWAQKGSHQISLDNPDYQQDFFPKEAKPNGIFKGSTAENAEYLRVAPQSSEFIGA

Columns and labels:
EGFR L858R = EGFR L858R (Homo sapiens, UniProt P00533, L858R); assay: Biochemical EGFR inhibition assay (Caliper mobility shift), EGFR L858R; conditions: read-out: Enz EGFR L858R IC50, EGFR L858R enzyme
EGFR (d746-750) = EGFR (d746-750) (Homo sapiens, UniProt P00533, DEL746-750); assay: Biochemical EGFR inhibition assay (Caliper mobility shift), EGFR (d746-750); conditions: read-out: Enz EGFR Exon 19-del IC50, EGFR Exon 19-del enzyme
[1] = molecular target: intracellular phosphorylation of EGFR (Tyr1068) in PC-9 cells (Homo sapiens, UniProt P00533, DEL746-750); assay: PC-9 pEGFR AlphaLISA assay; conditions: read-out: Phos EGFR PC9 IC50, 4 hours incubation

Measured: IC50

CC(Oc1cc(-c2cnn(C)c2)cc2ncnc(Nc3ccc4ncsc4c3F)c12)C1COC1 (single isomer, unassigned)
< 10 nM: all assays above

The structures given here were assigned with low confidence; some may be wrong.
